# PubChem BioAssay AID504804 – Drosophila RNAi Screening Center, 2011
# Test: 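Knock-downs shielding fly cells from apoptosis caused by DNA damage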 (primary screen)
# Cell system: Drosophila Kc cells
# Reagents: long dsRNA against Drosophila genes, 0.5 µg dsRNA per well
# Duration: 96 h (48 h knock-down, then 48 h drug)
# Conditions: doxorubicin 5 µg/ml for 48 h, added 48 h after dsRNA
# Measurement: 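Luminescent ATP counts per replicate, not normalised, reflecting viable cells after 48 h dsRNA knock-down followed by 48 h of 5 µg/ml doxorubicin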
# Direction: raw ATP luminescence: higher = more viable cells, protection from doxorubicin
# Hit rule: 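Active when both duplicate wells lie at least 2 SD above the plate mean and protection is confirmed by rescreening and independent dsRNAs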
# The deposit covers about 19,000 reagents; shown is an unselected part of those that have a named target and a result. In the full data, 47 (0.25%) were called active. 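Signals are raw, not normalised; exact z-scores behind calls not deposited; actives needed confirmation, so some wells reaching 2 SD are inactive.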 A plus sign joins genes that one reagent is predicted to hit.
gene knocked down,DRSC id,"raw ATP luminescence, replicate 1","raw ATP luminescence, replicate 2",call
CG32986 (GeneID 34208),DRSC02509,44760,55150,inactive
CTCF (GeneID 38817),DRSC11004,46857,41987,inactive
pit (GeneID 42595),DRSC17025,65610,80300,inactive
CG12895 (GeneID 36103),DRSC06210,59020,75717,inactive
Ddx1 (GeneID 40457),DRSC11862,22557,24370,inactive
Ir60d (GeneID 7354402),DRSC04218,49333,60657,inactive
boss (GeneID 43146),DRSC16916,89700,90330,inactive
Cpr49Ac (GeneID 36348),DRSC07199,61597,45003,inactive
Muc26B (GeneID 50424),DRSC02322,26190,30737,inactive
Hus1-like (GeneID 40598),DRSC12353,74070,59717,inactive
scrib (GeneID 44448),DRSC13774,1.73e5,1.73e5,inactive
scrib (GeneID 44448),DRSC17051,43880,56300,inactive
CG6329 (GeneID 36529),DRSC06976,49390,44617,inactive
Mrm2 (GeneID 42359),DRSC14310,62890,54520,inactive
Cpr76Bd (GeneID 40123),DRSC11063,56753,64800,inactive
CG10252 (GeneID 42794),DRSC14221,37620,45413,inactive
Ect3 (GeneID 41457),DRSC15462,44473,48457,inactive
CG7430 (GeneID 39988),DRSC10845,27293,26950,inactive
CG8389 (GeneID 36764),DRSC07158,61457,54827,inactive
CarT (GeneID 35334),DRSC03196,71600,74410,inactive
CG5004 (GeneID 32698),DRSC19929,3.09e5,2.89e5,inactive
CG5004 (GeneID 32698),DRSC19930,3.53e5,2.36e5,inactive
CG5004 (GeneID 32698),DRSC20123,1.40e5,1.44e5,inactive
ect (GeneID 44135),DRSC10675,75907,57947,inactive
ect (GeneID 44135),DRSC11343,56427,45623,inactive
prtp (GeneID 32124),DRSC19804,1.89e5,1.94e5,inactive
mam (GeneID 36555),DRSC05468,22300,23367,inactive
Coq7 + shf,DRSC18448,38130,40250,inactive
tj (GeneID 35227),DRSC02011,59567,51697,inactive
CG14810 (GeneID 31131),DRSC17693,2.22e5,2.23e5,inactive
CG14810 (GeneID 31131),DRSC17961,59220,53950,inactive
Sema2b (GeneID 246538),DRSC05609,1.01e5,1.07e5,inactive
Sema2b (GeneID 246538),DRSC05611,1.72e5,97790,inactive
CG31686 (retired record) (GeneID 318885),DRSC00102,2.08e5,2.65e5,inactive
CG7376 (GeneID 38715),DRSC10829,35690,39973,inactive
CG6005 (GeneID 42279),DRSC15945,37483,45887,inactive
CG7907 (GeneID 42539),DRSC16339,32060,31420,inactive
CG9498 (GeneID 33885),DRSC03235,22970,28257,inactive
TTLL12 (GeneID 35732),DRSC06555,42187,98860,inactive
CG31058 (retired record) (GeneID 43320),DRSC15840,15070,18760,inactive
LSm1 (GeneID 37413),DRSC04458,43800,47800,inactive
CG11345 (GeneID 38548),DRSC08176,77260,81077,inactive
opa (GeneID 40605),DRSC12384,47050,54463,inactive
TTLL4A (GeneID 47729),DRSC02528,91700,62213,inactive
CG17002 (GeneID 35610),DRSC04978,71330,73703,inactive
Rsf1 (GeneID 34370),DRSC03423,38377,58527,inactive
Strn-Mlck (GeneID 36753),DRSC05032,57313,62357,inactive
Strn-Mlck (GeneID 36753),DRSC05598,43800,31727,inactive
eag (GeneID 32428),DRSC19067,2.71e5,2.56e5,inactive
eag (GeneID 32428),DRSC20328,4.07e5,3.06e5,inactive
CG4686 (GeneID 42361),DRSC15622,73540,54030,inactive
CG34223 (GeneID 5740431),DRSC05268,1.13e5,1.20e5,inactive
Nepl3 (GeneID 326172),DRSC02681,1.15e5,69870,inactive
nord (GeneID 37882),DRSC04210,59233,49617,inactive
nord (GeneID 37882),DRSC04361,47620,54350,inactive
ScsbetaA (GeneID 41067),DRSC14446,50500,24443,inactive
CG14400 (GeneID 35354),DRSC02384,70750,63017,inactive
CG17658 (GeneID 37793),DRSC04292,42280,51047,inactive
CG3176 + CR18166 + CG32817,DRSC17271,1.83e5,1.94e5,inactive
CG3176 + CR18166 + CG32817,DRSC17282,1.74e5,1.91e5,inactive
Tango1 (GeneID 33930),DRSC02127,1.14e5,80253,inactive
CG14861 (GeneID 41810),DRSC14984,85270,77060,inactive
Cpr100A (GeneID 43657),DRSC14465,52840,41630,inactive
Pcyt2 (GeneID 38180),DRSC08531,47013,61353,inactive
CG8230 (GeneID 35897),DRSC05931,41793,73053,inactive
CG8202 (GeneID 41043),DRSC16396,68737,61167,inactive
Fatp3 (GeneID 37887),DRSC04366,43960,49173,inactive
so (GeneID 35662),DRSC07693,53920,64853,inactive
Eaat2 (GeneID 33247),DRSC00032,3.22e5,2.72e5,inactive
Eaat2 (GeneID 33247),DRSC00749,1.23e5,66480,inactive
CG7668 (GeneID 40190),DRSC10901,29337,25163,inactive
CG10214 (GeneID 42811),DRSC14213,27300,29663,inactive
Polr3F (GeneID 42619),DRSC15785,71980,54460,inactive
Alp8 (GeneID 37540),DRSC04353,77600,42643,inactive
foi (GeneID 38976),DRSC10719,69697,80617,inactive
CG17219 (GeneID 33515),DRSC00486,23080,18153,inactive
Uch-L5R (GeneID 32173),DRSC19825,2.96e5,2.83e5,inactive
tipE (GeneID 38504),DRSC08738,33970,34577,inactive
h-cup (GeneID 41879),DRSC15973,57643,24410,inactive
Abd-B (GeneID 47763),DRSC14098,78990,70200,inactive
Abd-B (GeneID 47763),DRSC14337,69820,64820,inactive
CG1690 (GeneID 36004),DRSC06636,48977,84380,inactive
CG4641 (retired record) (GeneID 39053),DRSC10439,41583,34530,inactive
Spred (GeneID 36643),DRSC05976,67487,51017,inactive
